Measurements: article PMC8655068, “Quantitative proteomic screen identifies annexin A2 as a host target for Salmonella pathogenicity island-2 effectors SopD2 and PipB2” (Scientific Reports, 2021)
No constants are given. Whether binding was seen depends on the method and setting. In cells and extracts the contact can be indirect. Here binding means that the protein was enriched with, or labelled near, the bait; the list need not be complete.

Chains of the proteins cited; added tags and fusions are not shown.
UniProt P07355: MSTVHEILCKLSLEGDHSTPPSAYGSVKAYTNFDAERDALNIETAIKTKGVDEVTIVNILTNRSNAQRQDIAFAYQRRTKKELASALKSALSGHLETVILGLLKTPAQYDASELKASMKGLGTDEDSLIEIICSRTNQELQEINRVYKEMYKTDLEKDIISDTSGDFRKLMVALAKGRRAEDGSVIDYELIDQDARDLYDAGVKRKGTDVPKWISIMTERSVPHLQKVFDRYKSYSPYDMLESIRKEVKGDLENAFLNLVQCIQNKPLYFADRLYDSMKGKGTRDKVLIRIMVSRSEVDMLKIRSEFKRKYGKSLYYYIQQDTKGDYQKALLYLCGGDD

Tests used:
[1] = molecular target: T1, SopD2-2HA (S. Typhimurium SL1344) (UniProt Q8ZQC8); assay: affinity purification with mass spectrometry; SILAC-labelled HeLa cells infected 8 h with T3SS2+ S. Typhimurium secreting an HA-tagged effector; RIPA lysate mixed 1:1 with oppositely labelled lysate of vector-control infection; anti-HA magnetic beads overnight at 4 °C; basic elution, SDS-PAGE, in-gel digestion, LC-MS/MS; 3 replicates with one label swap
T1 sequence: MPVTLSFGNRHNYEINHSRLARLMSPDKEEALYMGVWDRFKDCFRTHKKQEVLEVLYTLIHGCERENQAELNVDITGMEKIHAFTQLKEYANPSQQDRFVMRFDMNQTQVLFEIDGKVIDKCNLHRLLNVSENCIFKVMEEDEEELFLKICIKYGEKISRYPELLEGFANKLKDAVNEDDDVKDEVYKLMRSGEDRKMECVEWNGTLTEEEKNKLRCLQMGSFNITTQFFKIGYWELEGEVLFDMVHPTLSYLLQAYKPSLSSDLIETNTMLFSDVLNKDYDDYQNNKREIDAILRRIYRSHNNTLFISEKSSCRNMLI

[2] = molecular target: T2, PipB2-2HA (S. Typhimurium SL1344) (UniProt Q8ZMM8); assay: as above
T2 sequence: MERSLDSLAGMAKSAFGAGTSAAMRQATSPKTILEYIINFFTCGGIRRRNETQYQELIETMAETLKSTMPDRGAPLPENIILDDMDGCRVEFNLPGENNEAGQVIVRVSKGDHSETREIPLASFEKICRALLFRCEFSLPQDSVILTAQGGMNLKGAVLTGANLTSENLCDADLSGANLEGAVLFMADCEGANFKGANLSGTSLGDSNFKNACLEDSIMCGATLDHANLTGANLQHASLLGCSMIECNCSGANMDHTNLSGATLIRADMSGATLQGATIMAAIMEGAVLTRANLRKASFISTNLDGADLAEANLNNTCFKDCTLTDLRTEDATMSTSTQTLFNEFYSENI

Which results are given for “annexin A2 (AnxA2), endogenous in HeLa cells (from UniProt P07355 1-339)”?
binding [1]: binds; binding [2]: binds
